TcHisRS: 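Histidine-tRNA ligase, Trypanosoma cruzi CL Brener (UniProt Q4DA54). Enzyme assay of histidyl-tRNA synthetase; the read-out is not stated. Tested at 30 µM. The record gives no direction; compounds that gave an IC50 in retests scored well above the rest, so higher reads as stronger inhibition. Size under these conditions: about 69,000 compounds, about 31 of them at 50% or above in at least one test.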
CoaBC: 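Enzyme assay of CoaBC with a phosphate dye (Biomol Green) read at 650 nm. Target: Coenzyme A biosynthesis protein CoaBC, Mycobacterium tuberculosis (UniProt P9WNZ1). Concentration: 30 µM. Higher reads as stronger inhibition, judged from the few compounds that gave an IC50. Most strong results did not repeat in a second test. About 67,000 compounds were tested under these conditions; 0.06% (about 40) showed 50% or more at least once.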
LiHisRS: 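Enzyme assay of histidyl-tRNA synthetase; the read-out is not stated. Target: Histidine-tRNA ligase, Leishmania infantum (UniProt A4I591). Concentration: 30 µM. Higher reads as stronger inhibition (inferred: compounds with an IC50 in retests scored well above the rest). The assay is labelled LdHisRS but filed under L. infantum. About 69,000 compounds were tested under these conditions; 0.6% (about 410) showed 50% or more at least once.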

Amino acid sequences for entries named in this document (tags omitted). Residues count along the entry.
UniProt Q4DA54, 1-478: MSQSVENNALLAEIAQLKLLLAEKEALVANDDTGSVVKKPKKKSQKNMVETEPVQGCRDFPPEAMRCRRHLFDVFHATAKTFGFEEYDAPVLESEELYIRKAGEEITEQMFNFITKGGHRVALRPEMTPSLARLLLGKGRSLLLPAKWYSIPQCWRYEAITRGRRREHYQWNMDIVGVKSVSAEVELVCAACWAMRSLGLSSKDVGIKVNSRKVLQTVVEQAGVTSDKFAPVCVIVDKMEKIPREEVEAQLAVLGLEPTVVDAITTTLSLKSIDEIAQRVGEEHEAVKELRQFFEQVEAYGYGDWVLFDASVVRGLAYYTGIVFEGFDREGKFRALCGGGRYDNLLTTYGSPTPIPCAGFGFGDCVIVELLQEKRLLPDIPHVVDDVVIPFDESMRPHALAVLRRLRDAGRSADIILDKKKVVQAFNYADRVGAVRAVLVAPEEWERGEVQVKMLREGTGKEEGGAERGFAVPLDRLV
UniProt P9WNZ1, whole entry: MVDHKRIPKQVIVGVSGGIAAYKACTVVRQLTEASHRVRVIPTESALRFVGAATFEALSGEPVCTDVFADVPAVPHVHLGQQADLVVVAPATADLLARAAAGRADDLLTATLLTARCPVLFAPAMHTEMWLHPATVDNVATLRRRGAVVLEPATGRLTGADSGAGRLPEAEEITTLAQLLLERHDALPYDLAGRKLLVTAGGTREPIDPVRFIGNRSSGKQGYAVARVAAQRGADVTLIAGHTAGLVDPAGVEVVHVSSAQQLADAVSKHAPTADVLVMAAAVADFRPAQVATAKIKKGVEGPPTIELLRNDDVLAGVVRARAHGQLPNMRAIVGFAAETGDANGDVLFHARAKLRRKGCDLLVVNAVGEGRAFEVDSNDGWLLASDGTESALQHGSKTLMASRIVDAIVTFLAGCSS
UniProt A4I591, 1-473: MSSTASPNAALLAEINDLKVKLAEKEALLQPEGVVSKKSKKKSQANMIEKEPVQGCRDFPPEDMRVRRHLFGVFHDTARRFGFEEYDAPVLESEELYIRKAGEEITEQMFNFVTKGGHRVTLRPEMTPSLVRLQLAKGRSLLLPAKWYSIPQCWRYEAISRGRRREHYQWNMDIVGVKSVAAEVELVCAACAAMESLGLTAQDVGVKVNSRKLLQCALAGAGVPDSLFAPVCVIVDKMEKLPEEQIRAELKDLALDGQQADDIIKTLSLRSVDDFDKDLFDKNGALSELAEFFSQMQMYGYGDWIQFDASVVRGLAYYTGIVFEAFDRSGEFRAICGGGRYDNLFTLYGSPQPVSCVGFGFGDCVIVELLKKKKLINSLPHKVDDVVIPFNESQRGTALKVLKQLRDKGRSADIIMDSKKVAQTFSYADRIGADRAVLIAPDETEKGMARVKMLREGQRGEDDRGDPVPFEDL

Values are the deposited “Percent Effect”, in %. The controls that fix the scale are not given in the record; negative values are as filed. Compounds were drawn at random from those tested, without regard to their results.

{"compound": "NC(=O)COc1ccc(CNCc2ccc(F)c(F)c2)cc1", "TcHisRS": 4.065, "CoaBC": -2.11, "LiHisRS": 25.96}
{"compound": "Cc1nnc(CN2CCOC(c3ccc(Cl)c(Cl)c3)C2)o1", "stereo": "stereo unspecified", "TcHisRS": 5.882, "CoaBC": -1.72, "LiHisRS": 16.67}
{"compound": "O=C1CC(N(C(=O)COc2ccc(F)cc2F)C2CC2)C(=O)N1", "stereo": "stereo unspecified", "TcHisRS": 10, "CoaBC": 5.124, "LiHisRS": 20.41}
{"compound": "CCN(CC)CCCC(C)NC(=O)c1cccnc1-n1cccn1", "stereo": "stereo unspecified", "TcHisRS": 2.41, "CoaBC": 4.703, "LiHisRS": 12}
{"compound": "Cc1nn(C)c(Cl)c1C1CCCN1C(=O)c1cc(Cl)c[nH]1", "stereo": "stereo unspecified", "TcHisRS": 2.256, "CoaBC": 4.152, "LiHisRS": 21.43}
{"compound": "CNC(=O)Cc1noc(-c2cc3c(s2)CCCCCC3)n1", "TcHisRS": 1.961, "CoaBC": 4.147, "LiHisRS": 16.67}
{"compound": "COC[C@]1(O)CCN(C(=O)c2cccc(CN(C)C)c2)CC1(C)C", "TcHisRS": 3.867, "CoaBC": -6.865, "LiHisRS": -1.408}
{"compound": "Cc1ccc(C(=O)N2CCCC(CNS(=O)(=O)C(C)C)C2)cc1", "stereo": "stereo unspecified", "TcHisRS": 6.186, "CoaBC": 1.956, "LiHisRS": 11.29}
{"compound": "CC1CCCN(C(=O)c2nnn(-c3ccc(C(F)(F)F)cc3)n2)C1", "stereo": "stereo unspecified", "TcHisRS": 2.062, "CoaBC": 0.6342, "LiHisRS": 5.217}
{"compound": "COC(=O)C1(NCC(=O)Nc2cc(C)ccc2OC)CCCCC1", "TcHisRS": 1.587, "CoaBC": 0.5964, "LiHisRS": 22.67}
{"compound": "CC(C)C1CN(Cc2c[nH]cn2)CCCN1CC1CC1", "stereo": "stereo unspecified", "TcHisRS": -1.299, "CoaBC": 0.9756, "LiHisRS": 11.67}
{"compound": "O[C@H]1CC[C@@H](Cc2cc(-c3ccccn3)on2)O[C@@H]1CNCC1CC1", "TcHisRS": -33.33, "CoaBC": 5.161, "LiHisRS": 19.44}
{"compound": "CCc1cc(NC(=O)c2cccc(OCC(F)(F)F)n2)[nH]n1", "TcHisRS": 0.5291, "CoaBC": 8.961, "LiHisRS": 14.71}
{"compound": "O=C(CCCn1cncn1)N1CCC2(CCCN(C3CCCC3)C2=O)C1", "stereo": "stereo unspecified", "TcHisRS": 2.041, "CoaBC": 4.365, "LiHisRS": 0}
{"compound": "Cc1noc(C)c1CN1CC[C@H]2OCC[C@@H](C(=O)N3CCCO3)[C@H]2C1", "TcHisRS": -1.961, "CoaBC": 12.05, "LiHisRS": 20}
{"compound": "CC(C)n1c(=O)c2sccc2n(CC(=O)Nc2ccccc2)c1=O", "TcHisRS": -8.876, "CoaBC": -7.632, "LiHisRS": 20.69}
{"compound": "CC(C)NC(=O)CN1CCC(c2cccc(F)c2)C1", "stereo": "stereo unspecified", "TcHisRS": 8.284, "CoaBC": 2.155, "LiHisRS": 16.07}
{"compound": "Cc1ncncc1C(=O)Nc1cnn(CC(=O)NC2CCCC2)c1", "TcHisRS": -1.075, "CoaBC": 0.9162, "LiHisRS": 14.29}
{"compound": "COCC(=O)N1CCCC1c1nccnc1Nc1nc(C)cs1", "stereo": "stereo unspecified", "TcHisRS": 18.68, "CoaBC": -1.214, "LiHisRS": 21.74}
{"compound": "Cc1ncc(CNC(=O)Cc2ccc(Cl)cc2)c(C2CCCN2C)n1", "stereo": "stereo unspecified", "TcHisRS": 11.35, "CoaBC": 2.5, "LiHisRS": -30.56}
{"compound": "COc1ccc(CNC(=O)NCCCNS(C)(=O)=O)cc1OC", "TcHisRS": -5.634, "CoaBC": 1.145, "LiHisRS": 11.3}
{"compound": "CCc1ccc2nc(C)cc(C(=O)NC3CCC(=O)N(C)C3)c2c1", "stereo": "stereo unspecified", "TcHisRS": 6.173, "CoaBC": 10.92, "LiHisRS": 9.804}
{"compound": "COc1ccccc1CC1CCCN(CC(=O)N2CCOCC2)C1", "stereo": "stereo unspecified", "TcHisRS": -1.132, "CoaBC": 10, "LiHisRS": 2.667}
{"compound": "COc1ccc(CNC(=O)N(C)CC(C)(C)O)cc1OC", "TcHisRS": -1.84, "CoaBC": 3.457, "LiHisRS": 9.877}
{"compound": "Cc1ccccc1OCC(=O)N1CCN(C2CCOC2=O)CC1", "stereo": "stereo unspecified", "TcHisRS": 4.36, "CoaBC": 6.636, "LiHisRS": 11.4}
{"compound": "N#Cc1c(N)nc2c(c1-c1c[nH]nc1C1CCCCC1)COCC2", "TcHisRS": 9.821, "CoaBC": 4.403, "LiHisRS": 12.39}
{"compound": "CCN(C)C(=O)C1(c2ccc(F)cc2F)CCC1", "TcHisRS": 1.093, "CoaBC": -5.623, "LiHisRS": 24.66}
{"compound": "Cc1nn(C)c(C)c1C(=O)N1CCOCC1CC(=O)c1ccco1", "stereo": "stereo unspecified", "TcHisRS": -1.087, "CoaBC": 11.2, "LiHisRS": 5.714}

For reference, 2 entries once more:

| Compound | TcHisRS | CoaBC | LiHisRS |
|---|---|---|---|
| `NC(=O)COc1ccc(CNCc2ccc(F)c(F)c2)cc1` | 4.065 | -2.11 | 25.96 |
| `COc1ccccc1CC1CCCN(CC(=O)N2CCOCC2)C1` (stereo unspecified) | -1.132 | 10 | 2.667 |

From ChEMBL document CHEMBL3988442, “University of Dundee, Small-Polar-MMV Screening Library” (2021).